Measurements as given in the supplement of paper PMC10849652.
The list shows a part of the results.

Chains of the proteins cited; added tags and fusions are not shown. Lines headed by an entry give the natural chain unless they say otherwise; changes in a name come on top.
UniProt Q460N5, whole entry, looked up: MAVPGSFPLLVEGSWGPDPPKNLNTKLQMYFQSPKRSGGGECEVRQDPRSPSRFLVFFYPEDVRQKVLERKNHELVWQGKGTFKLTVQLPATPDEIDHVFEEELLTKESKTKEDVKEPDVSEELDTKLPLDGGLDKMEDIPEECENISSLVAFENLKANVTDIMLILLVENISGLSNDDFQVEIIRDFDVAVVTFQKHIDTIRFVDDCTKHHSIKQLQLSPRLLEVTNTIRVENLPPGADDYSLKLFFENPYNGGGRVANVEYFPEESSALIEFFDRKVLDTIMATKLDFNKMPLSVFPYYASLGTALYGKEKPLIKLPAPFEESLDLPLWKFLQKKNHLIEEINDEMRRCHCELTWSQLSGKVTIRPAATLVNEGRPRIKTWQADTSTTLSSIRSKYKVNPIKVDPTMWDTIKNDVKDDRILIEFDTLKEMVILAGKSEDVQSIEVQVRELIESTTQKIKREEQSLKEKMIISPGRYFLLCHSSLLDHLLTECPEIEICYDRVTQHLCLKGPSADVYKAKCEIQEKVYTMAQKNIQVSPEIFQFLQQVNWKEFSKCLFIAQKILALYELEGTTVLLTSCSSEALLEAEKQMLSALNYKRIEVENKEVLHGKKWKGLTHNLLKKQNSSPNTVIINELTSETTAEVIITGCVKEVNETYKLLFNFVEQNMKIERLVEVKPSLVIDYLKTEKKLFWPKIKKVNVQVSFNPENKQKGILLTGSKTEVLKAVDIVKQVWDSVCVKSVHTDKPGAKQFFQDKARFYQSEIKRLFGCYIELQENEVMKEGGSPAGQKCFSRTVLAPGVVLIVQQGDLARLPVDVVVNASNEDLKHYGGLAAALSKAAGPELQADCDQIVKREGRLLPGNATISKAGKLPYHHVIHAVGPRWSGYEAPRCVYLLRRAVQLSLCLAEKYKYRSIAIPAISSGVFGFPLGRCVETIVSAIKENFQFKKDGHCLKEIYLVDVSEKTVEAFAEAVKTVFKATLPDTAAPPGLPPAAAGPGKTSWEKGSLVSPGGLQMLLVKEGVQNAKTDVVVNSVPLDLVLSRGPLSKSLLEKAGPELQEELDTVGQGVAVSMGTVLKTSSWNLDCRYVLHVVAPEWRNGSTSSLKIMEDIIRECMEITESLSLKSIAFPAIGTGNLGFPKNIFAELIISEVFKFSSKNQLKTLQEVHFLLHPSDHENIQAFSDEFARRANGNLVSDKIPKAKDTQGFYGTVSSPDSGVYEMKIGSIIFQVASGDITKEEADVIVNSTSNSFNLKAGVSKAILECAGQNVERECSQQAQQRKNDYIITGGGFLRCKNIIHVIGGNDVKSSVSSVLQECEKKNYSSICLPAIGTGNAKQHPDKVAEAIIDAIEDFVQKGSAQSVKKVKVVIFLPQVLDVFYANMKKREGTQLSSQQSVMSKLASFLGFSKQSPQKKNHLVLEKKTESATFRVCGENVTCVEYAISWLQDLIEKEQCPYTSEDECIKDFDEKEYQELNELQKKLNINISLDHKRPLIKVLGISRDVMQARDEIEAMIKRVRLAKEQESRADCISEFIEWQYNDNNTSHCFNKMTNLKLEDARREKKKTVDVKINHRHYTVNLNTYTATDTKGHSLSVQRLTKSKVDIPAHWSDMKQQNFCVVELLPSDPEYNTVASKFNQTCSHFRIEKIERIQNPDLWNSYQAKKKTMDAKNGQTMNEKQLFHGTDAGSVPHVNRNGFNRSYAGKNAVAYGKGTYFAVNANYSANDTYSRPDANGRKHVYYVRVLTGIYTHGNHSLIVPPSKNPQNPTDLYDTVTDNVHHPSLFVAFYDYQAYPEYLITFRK
UniProt Q9UGN5: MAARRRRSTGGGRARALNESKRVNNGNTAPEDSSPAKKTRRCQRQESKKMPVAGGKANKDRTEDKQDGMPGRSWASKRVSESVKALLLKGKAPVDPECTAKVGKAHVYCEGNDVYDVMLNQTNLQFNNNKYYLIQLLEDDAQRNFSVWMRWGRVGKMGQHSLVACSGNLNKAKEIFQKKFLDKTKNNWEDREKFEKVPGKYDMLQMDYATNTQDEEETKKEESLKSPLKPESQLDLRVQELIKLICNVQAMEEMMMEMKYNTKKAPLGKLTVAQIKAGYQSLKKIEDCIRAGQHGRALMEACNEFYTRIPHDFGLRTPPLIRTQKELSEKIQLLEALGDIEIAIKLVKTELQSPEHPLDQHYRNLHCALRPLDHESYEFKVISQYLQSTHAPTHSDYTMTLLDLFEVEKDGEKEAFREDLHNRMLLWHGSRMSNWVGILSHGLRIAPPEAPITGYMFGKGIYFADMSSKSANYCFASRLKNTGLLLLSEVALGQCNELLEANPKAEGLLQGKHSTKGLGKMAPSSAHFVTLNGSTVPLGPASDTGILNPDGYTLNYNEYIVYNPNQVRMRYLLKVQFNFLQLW
UniProt P12955: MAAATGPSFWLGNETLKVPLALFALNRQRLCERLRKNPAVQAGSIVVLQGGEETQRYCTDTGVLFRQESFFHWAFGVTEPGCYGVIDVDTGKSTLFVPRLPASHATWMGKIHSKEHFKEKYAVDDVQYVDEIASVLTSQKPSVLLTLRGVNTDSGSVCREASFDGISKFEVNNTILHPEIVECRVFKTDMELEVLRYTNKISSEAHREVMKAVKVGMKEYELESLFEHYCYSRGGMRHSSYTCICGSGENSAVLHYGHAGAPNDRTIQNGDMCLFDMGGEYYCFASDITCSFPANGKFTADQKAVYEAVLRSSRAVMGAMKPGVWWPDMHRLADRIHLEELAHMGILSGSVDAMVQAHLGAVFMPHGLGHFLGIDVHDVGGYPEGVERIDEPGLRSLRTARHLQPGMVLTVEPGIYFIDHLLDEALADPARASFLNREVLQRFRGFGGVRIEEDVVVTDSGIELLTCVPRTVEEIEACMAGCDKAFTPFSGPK
UniProt O75381, whole entry, looked up: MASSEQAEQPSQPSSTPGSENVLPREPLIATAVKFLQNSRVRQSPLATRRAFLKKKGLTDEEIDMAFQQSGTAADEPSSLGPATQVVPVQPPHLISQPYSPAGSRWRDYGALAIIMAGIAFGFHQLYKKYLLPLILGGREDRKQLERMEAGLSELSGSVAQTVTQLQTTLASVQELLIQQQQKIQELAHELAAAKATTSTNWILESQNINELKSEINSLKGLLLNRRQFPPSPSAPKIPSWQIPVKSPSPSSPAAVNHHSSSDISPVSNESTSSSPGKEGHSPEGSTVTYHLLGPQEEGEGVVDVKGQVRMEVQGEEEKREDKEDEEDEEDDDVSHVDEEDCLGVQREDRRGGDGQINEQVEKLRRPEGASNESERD
UniProt Q13442: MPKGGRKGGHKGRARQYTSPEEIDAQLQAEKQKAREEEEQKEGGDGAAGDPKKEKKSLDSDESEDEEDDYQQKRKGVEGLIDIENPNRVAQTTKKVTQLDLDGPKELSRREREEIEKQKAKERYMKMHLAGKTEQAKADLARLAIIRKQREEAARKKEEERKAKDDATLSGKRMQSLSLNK
UniProt O00151: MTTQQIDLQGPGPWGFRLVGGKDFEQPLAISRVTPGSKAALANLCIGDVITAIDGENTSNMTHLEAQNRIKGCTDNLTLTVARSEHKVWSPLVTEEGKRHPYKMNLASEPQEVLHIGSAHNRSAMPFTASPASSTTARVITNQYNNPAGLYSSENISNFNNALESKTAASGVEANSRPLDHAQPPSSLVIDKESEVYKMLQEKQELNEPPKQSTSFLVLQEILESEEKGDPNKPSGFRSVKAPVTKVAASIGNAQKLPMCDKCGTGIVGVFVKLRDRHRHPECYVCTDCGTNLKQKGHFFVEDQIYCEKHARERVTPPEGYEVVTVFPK
UniProt Q96GD0: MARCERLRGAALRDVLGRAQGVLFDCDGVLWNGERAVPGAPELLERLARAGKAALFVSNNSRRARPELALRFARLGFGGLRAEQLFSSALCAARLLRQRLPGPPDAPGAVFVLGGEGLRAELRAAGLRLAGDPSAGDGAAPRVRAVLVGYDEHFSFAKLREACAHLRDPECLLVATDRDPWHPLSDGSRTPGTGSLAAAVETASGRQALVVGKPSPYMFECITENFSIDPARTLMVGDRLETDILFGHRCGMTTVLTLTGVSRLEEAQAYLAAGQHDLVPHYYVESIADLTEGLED
UniProt Q8IZL8: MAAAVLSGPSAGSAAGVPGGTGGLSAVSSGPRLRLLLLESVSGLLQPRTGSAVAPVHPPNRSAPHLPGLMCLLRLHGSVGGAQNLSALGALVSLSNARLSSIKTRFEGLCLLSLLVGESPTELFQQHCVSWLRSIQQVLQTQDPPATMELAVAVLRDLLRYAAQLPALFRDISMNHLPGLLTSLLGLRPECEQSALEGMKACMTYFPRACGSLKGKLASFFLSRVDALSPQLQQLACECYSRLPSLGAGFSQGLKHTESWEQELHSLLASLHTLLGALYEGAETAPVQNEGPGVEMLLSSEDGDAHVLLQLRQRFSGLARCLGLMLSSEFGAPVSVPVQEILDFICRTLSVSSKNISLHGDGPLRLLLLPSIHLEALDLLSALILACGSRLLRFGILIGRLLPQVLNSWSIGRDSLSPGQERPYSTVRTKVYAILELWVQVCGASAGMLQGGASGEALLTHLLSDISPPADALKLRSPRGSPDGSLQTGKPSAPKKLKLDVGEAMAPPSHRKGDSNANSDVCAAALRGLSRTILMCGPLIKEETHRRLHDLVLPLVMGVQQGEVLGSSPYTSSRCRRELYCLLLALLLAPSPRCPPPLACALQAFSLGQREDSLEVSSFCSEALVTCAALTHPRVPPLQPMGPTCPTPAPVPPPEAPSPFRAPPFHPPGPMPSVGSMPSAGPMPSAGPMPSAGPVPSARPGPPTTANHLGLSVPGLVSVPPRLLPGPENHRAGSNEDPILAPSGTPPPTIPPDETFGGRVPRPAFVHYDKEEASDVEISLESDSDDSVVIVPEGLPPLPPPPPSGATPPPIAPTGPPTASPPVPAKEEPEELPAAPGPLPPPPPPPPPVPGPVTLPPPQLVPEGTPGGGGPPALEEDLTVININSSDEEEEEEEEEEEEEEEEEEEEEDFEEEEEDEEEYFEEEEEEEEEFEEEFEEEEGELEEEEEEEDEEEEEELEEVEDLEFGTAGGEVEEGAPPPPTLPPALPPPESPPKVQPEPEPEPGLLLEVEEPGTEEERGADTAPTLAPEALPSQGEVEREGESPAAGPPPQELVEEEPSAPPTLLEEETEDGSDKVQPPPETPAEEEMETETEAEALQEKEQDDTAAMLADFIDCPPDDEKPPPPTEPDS
UniProt Q7L3T8: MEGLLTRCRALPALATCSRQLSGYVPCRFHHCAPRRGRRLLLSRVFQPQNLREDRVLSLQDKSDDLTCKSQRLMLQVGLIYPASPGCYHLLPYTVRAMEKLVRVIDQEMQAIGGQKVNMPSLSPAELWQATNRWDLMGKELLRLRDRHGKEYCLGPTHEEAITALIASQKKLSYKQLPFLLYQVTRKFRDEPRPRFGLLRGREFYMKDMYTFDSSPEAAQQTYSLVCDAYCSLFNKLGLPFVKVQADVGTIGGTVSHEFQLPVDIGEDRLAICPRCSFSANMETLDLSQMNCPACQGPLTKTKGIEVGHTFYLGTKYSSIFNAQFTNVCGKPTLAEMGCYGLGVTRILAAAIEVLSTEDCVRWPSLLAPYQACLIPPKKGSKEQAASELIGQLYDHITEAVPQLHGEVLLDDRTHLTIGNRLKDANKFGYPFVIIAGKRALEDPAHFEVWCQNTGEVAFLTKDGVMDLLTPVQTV
UniProt Q9H0N5: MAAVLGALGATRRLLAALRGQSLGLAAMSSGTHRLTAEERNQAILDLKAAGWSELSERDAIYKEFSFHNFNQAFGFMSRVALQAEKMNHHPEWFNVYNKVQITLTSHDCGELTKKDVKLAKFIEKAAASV
UniProt P30086: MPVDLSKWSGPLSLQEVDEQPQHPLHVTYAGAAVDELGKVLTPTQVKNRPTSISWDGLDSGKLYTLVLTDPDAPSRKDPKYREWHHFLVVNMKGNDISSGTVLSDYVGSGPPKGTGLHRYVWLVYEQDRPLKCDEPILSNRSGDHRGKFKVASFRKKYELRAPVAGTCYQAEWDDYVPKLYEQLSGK
UniProt O60825: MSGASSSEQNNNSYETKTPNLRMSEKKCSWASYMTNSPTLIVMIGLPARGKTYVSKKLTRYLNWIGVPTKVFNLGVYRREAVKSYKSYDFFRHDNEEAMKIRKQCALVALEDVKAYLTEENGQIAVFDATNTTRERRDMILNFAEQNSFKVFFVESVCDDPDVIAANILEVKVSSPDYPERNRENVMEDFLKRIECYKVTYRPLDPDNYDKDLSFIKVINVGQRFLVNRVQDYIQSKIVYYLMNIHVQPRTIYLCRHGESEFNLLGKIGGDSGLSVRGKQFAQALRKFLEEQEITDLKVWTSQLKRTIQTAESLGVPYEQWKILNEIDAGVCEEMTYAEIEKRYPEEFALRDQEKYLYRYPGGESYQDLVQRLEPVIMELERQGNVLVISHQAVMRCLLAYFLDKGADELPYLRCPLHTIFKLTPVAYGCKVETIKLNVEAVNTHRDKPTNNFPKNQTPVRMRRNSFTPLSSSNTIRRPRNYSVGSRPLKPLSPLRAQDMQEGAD

Assays:
Test in all cases: log2 fold change, soluble protein after heating vs DMSO (PISA); higher = thermal stabilisation; K562 lysate, 10 uM; active = over 0.2 and 3.5 SD of the protein, either way, in both replicates (recomputed)
nilotinib = compound: Cc1cn(-c2cc(NC(=O)c3ccc(C)c(Nc4nccc(-c5cccnc5)n4)c3)cc(C(F)(F)F)c2)cn1 [nilotinib]
Summary of the method: (§1)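 A 30 min treatment with 10 μM compound was applied to crude K562 extract at 1 mg/mL protein in PBS pH 7.4 with 1 mM MgCl2. Heating for 3 min spanned 48°C-58°C, after which aliquots were pooled, adjusted to 0.5% NP-40 at 4°C and spun at 21,000xg for 90 min. TMTpro 16plex LC-MS/MS of the supernatant, with channel sums equalised, gave values recorded as log-two fold change in thermal stability against solvent controls, from duplicates.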

[1] = compound: Cc1nc(Nc2n[nH]c3c2CN(C(=O)N[C@H](CN(C)C)c2ccccc2)C3(C)C)c2sccc2n1
Summary of the method: as §1

dasatinib = compound: Cc1nc(Nc2ncc(C(=O)Nc3c(C)cccc3Cl)s2)cc(N2CCN(CCO)CC2)n1 [dasatinib]
Summary of the method: as §1

[2] = compound: Cc1ncc(-c2ccnc(Nc3ccc(S(C)(=O)=O)cc3)n2)n1C(C)C
Summary of the method: as §1

[3] = compound: Cn1cc(-c2ccc3c(c2)CCN3C(=O)Cc2cccc(C(F)(F)F)c2)c2c(N)ncnc21
Summary of the method: as §1

quisinostat = compound: Cn1cc(CNCC2CCN(c3ncc(C(=O)NO)cn3)CC2)c2ccccc21 [quisinostat]
Summary of the method: as §1

tipifarnib = compound: Cn1cncc1[C@@](N)(c1ccc(Cl)cc1)c1ccc2c(c1)c(-c1cccc(Cl)c1)cc(=O)n2C [tipifarnib]
Summary of the method: as §1

[4] = compound: NC(=O)Nc1cc(-c2cccc(F)c2)sc1C(=O)N[C@H]1CCCNC1
Summary of the method: as §1

[5] = compound: NC(=O)c1cnc(N[C@@H]2CCCC[C@@H]2N)nc1Nc1cccc(-n2nccn2)c1
Summary of the method: as §1

[6] = compound: NC1(c2ccc(-c3nc4ccn5c(=O)[nH]nc5c4cc3-c3ccccc3)cc2)CCC1
Summary of the method: as §1

[7] = compound: NCC(=O)Nc1ccc(-n2nc(C(F)(F)F)cc2-c2ccc3c(ccc4ccccc43)c2)cc1
Summary of the method: as §1

vorinostat = compound: O=C(CCCCCCC(=O)Nc1ccccc1)NO [vorinostat]
Summary of the method: as §1

silmitasertib = compound: O=C(O)c1ccc2c(c1)nc(Nc1cccc(Cl)c1)c1ccncc12 [silmitasertib]
Summary of the method: as §1

[8] = compound: O=C1NC(=O)C(c2cnc3ccccn23)=C1c1cn2c3c(cc(F)cc13)CN(C(=O)N1CCCCC1)CC2
Summary of the method: as §1

entospletinib = compound: c1cn2cc(-c3ccc4cn[nH]c4c3)nc(Nc3ccc(N4CCOCC4)cc3)c2n1 [entospletinib]
Summary of the method: as §1

Target | log2 fold change (nilotinib) | log2 fold change [1] | log2 fold change (dasatinib) | log2 fold change [2] | log2 fold change [3] | log2 fold change (quisinostat) | log2 fold change (tipifarnib) | log2 fold change [4] | log2 fold change [5] | log2 fold change [6] | log2 fold change [7] | log2 fold change (vorinostat) | log2 fold change (silmitasertib) | log2 fold change [8] | log2 fold change (entospletinib)
PARP14 (UniProt Q460N5) | inactive: 0.004 | inactive: -0.022 | inactive: -0.024 | inactive: 0.068 | inactive: 0.256 | inactive: -0.025 | inactive: -0.068 | inactive: 0.128 | inactive: 0.051 | inactive: -0.09 | inactive: -0.006 | active: -0.391 | inactive: 0.009 | inactive: 0.149 | inactive: -0.014
PARP2 (UniProt Q9UGN5) | inactive: -0.038 | inactive: -0.026 | inactive: -0.026 | inactive: 0.015 | inactive: 0.03 | inactive: -0.07 | inactive: 0.031 | inactive: -0.012 | inactive: 0.046 | inactive: 0.036 | inactive: 0.051 | inactive: -0.18 | inactive: -0.088 | inactive: 0.051 | inactive: 0.032
PDSS2 (UniProt Q86YH6) | inactive: 0.051 | inactive: 0.006 | inactive: -0.068 | inactive: -0.021 | inactive: 0.028 | inactive: -0.111 | inactive: -0.018 | inactive: 0.021 | inactive: -0.04 | inactive: -0.038 | inactive: -0.079 | inactive: 0.011 | inactive: 0.029 | inactive: 0.044 | 
PEPD (UniProt P12955) | inactive: 0.121 | inactive: -0.023 | inactive: 0.037 | inactive: -0.02 | inactive: -0.04 | inactive: -0.032 | inactive: 0.039 | inactive: 0.021 | inactive: -0.022 | inactive: -0.027 | inactive: -0.003 | inactive: 0.139 | inactive: 0 | inactive: 0.024 | inactive: 0.083
PEX14 (UniProt O75381) | inactive: 0.007 | inactive: -0.015 | inactive: -0.019 | inactive: -0.007 | inactive: 0.008 | inactive: 0.005 | inactive: -0.029 | inactive: -0.009 | inactive: 0.016 | inactive: -0.067 | inactive: -0.002 | inactive: 0.019 | inactive: 0.019 | inactive: -0.029 | inactive: 0
PEX5 isoform 4 (UniProt P50542) | inactive: -0.023 | inactive: -0.043 | inactive: -0.084 | inactive: 0.008 | inactive: 0.009 | inactive: -0.011 | inactive: 0.012 | inactive: -0.012 | inactive: 0.129 | inactive: -0.029 | inactive: -0.026 | inactive: -0.072 | inactive: 0.005 | inactive: 0.018 | inactive: 0.003
PDAP1 (UniProt Q13442) | inactive: 0 | inactive: 0.002 | inactive: 0.066 | inactive: -0.01 | inactive: -0.009 | inactive: 0.013 | inactive: 0.044 | inactive: 0.017 | inactive: -0.016 | inactive: -0.032 | inactive: 0.014 | inactive: 0.118 | inactive: 0.005 | inactive: -0.004 | inactive: -0.027
PDLIM1 (UniProt O00151) | inactive: 0.036 | inactive: 0.018 | inactive: 0.001 | inactive: 0.062 | inactive: -0.037 | inactive: 0.037 | inactive: 0.017 | inactive: -0.012 | inactive: -0.02 | inactive: 0.003 | inactive: -0.002 | inactive: 0.097 | inactive: -0.011 | inactive: 0.013 | inactive: 0.016
PFDN6 (UniProt O15212) | inactive: 0.035 | inactive: -0.001 | inactive: 0.018 | inactive: 0.051 | inactive: -0.01 | inactive: -0.013 | inactive: 0.048 | inactive: -0.037 | inactive: -0.006 | inactive: 0.025 | inactive: -0.065 | inactive: 0.156 | inactive: -0.026 | inactive: 0.049 | inactive: -0.02
PCBP2 (UniProt H3BRU6) | inactive: 0.066 | inactive: 0.04 | inactive: 0.079 | inactive: 0.027 | inactive: -0.082 | inactive: -0.119 | inactive: -0.095 | inactive: 0.042 | inactive: -0.023 | inactive: 0.084 | inactive: 0.139 | active: -0.662 | inactive: -0.102 | inactive: -0.053 | inactive: 0.061
PER3 isoform 2 (UniProt P56645) | inactive: 0.056 | inactive: -0.041 | inactive: 0.058 | inactive: -0.01 | inactive: 0.008 | inactive: 0.085 | inactive: 0.03 | inactive: 0.003 | inactive: -0.016 | inactive: 0.022 | inactive: -0.164 | inactive: 0.06 | inactive: -0.05 | inactive: -0.021 | inactive: -0.009
PDXP (UniProt Q96GD0) | inactive: -0.001 | inactive: -0.024 | inactive: -0.001 | inactive: 0.012 | inactive: 0 | inactive: 0.044 | inactive: 0.077 | inactive: -0.042 | inactive: 0.008 | inactive: 0.076 | inactive: 0.008 | inactive: 0.118 | inactive: 0.026 | inactive: 0.017 | inactive: -0.028
PELP1 (UniProt Q8IZL8) | inactive: 0.003 | inactive: 0.018 | inactive: -0.003 | inactive: 0.008 | inactive: -0.02 | inactive: -0.063 | inactive: -0.036 | inactive: 0.021 | inactive: 0.005 | inactive: 0.037 | inactive: 0.099 | inactive: 0.094 | inactive: 0.007 | inactive: 0.032 | inactive: -0.076
PARS2 (UniProt Q7L3T8) | inactive: -0.011 | inactive: -0.019 | inactive: 0.015 | inactive: 0.046 | inactive: -0.033 | inactive: 0.062 | inactive: -0.035 | inactive: -0.009 | inactive: -0.012 | inactive: 0.007 | inactive: -0.006 | inactive: 0.033 | inactive: -0.023 | inactive: 0.013 | inactive: -0.02
PCBD2 (UniProt Q9H0N5) | inactive: 0.01 | inactive: -0.045 | inactive: 0.011 | inactive: -0.063 | inactive: 0.051 | inactive: -0.08 | inactive: -0.101 | inactive: 0.033 | inactive: 0.069 | inactive: -0.066 | inactive: 0.008 | inactive: 0.034 | inactive: 0.01 | inactive: -0.006 | inactive: 0.003
PDPR (UniProt Q8NCN5) | inactive: 0.012 | inactive: 0.018 | inactive: -0.006 | inactive: -0.002 | inactive: 0.008 | inactive: -0.027 | inactive: -0.014 | inactive: 0.025 | inactive: 0.019 | inactive: -0.054 | inactive: 0.004 | inactive: 0.119 | inactive: 0.037 | inactive: -0.032 | inactive: 0.058
PEBP1 (UniProt P30086) | inactive: 0.009 | inactive: -0.012 | inactive: 0.004 | inactive: -0.002 | inactive: -0.053 | inactive: 0.037 | inactive: 0.015 | inactive: -0.034 | inactive: -0.009 | inactive: 0.02 | inactive: -0.012 | inactive: 0.156 | inactive: -0.008 | inactive: 0.02 | inactive: 0.008
PCCA (UniProt P05165) | inactive: 0.072 | inactive: -0.031 | inactive: 0.001 | inactive: -0.023 | inactive: -0.027 | inactive: 0.045 | inactive: -0.009 | inactive: -0.008 | inactive: 0.012 | inactive: 0.013 | inactive: -0.018 | inactive: 0.137 | inactive: 0.045 | inactive: -0.02 | inactive: -0.036
PFKFB2 (UniProt O60825) | inactive: -0.04 | inactive: 0.011 | inactive: 0.017 | inactive: -0.043 | inactive: 0.014 | inactive: 0.024 | inactive: -0.011 | inactive: -0.046 | inactive: -0.003 | inactive: -0.009 | inactive: -0.007 | active: -0.39 | inactive: 0.033 | inactive: 0.026 | inactive: 0.018
PCYOX1L (UniProt Q8NBM8) | inactive: -0.008 | inactive: 0.024 | inactive: 0.034 | inactive: -0.044 | inactive: -0.029 | inactive: -0.103 | inactive: -0.022 | inactive: 0.01 | inactive: 0.012 | inactive: -0.017 | inactive: 0.029 | inactive: 0.048 | inactive: 0.001 | inactive: -0.031 | inactive: -0.014
PEF1 (UniProt Q9UBV8) | inactive: 0.026 | inactive: 0.013 | inactive: 0.012 | inactive: -0.015 | inactive: -0.004 | inactive: 0.08 | inactive: 0.028 | inactive: -0.018 | inactive: 0.005 | inactive: 0.011 | inactive: -0.186 | active: 0.467 | inactive: -0.005 | inactive: -0.008 | inactive: -0.009
